Some of the results follow. Shown are side measurements of this screen, not its main read-out; they come without a call. Compounds called inactive in the main read-out are mostly missing here. The note in brackets gives the kind of curve behind each potency; many fits are weak.
Test: qHTS Assay for Lipid Storage Modulators in Drosophila S3 Cells;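 on cell number change: cells counted by Cell Tracker Red CMTPX staining in the red channel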
Settings: BODIPY lipid droplet fluorescence, 18-24 h; for cell number change: measured here: cell count max response, cells fed with added oleic acid
How it was run: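 Drosophila S3 cells got compounds at several concentrations plus oleic acid (400 uM solution). Laser-scanning cytometry with 488 nm excitation read lipid droplets at 500-530 nm and cells at 575-640 nm. Percent activity was relative to 20 uM Triacsin C.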

[1] = measured here: lipid fluorescence (Fed channel) AC50, cells fed with added oleic acid
[2] = measured here: cell number channel AC50, cells fed with added oleic acid

SMILES: COc1ccccc1NS(=O)(=O)c1ccc(C)c(C(=O)NCC(c2ccco2)N2CCCCC2)c1 (configuration not stated)
- cell number change: -5.52%
- AC50 [1]: 29.1 µM [rising, single point]

SMILES: COc1cccc(C(=O)COc2ccccc2N2C(=O)C3C4C=CC(C4)C3C2=O)c1 (configuration not stated)
- cell number change: 2.75%

SMILES: COc1ccc(Nc2nccc(N(C)C)c2C#N)cc1
- cell number change: 10.6%
- AC50 [1]: 1.64 µM [rising, partial curve, poor fit]

SMILES: COc1ccccc1N(C)S(=O)(=O)c1ccc(C(=O)NCC2CCCCC2)cc1
- cell number change: 7.85%

SMILES: COc1ccc(CSc2nc(O)cc(=O)n2CC(C)C)cc1F
- cell number change: 9.4%
- AC50 [1]: 18.4 µM [rising, partial curve, poor fit]

SMILES: Cc1c(Cl)cccc1NC(=O)Cn1c(CCC(=O)O)ccc1-c1ccccc1
- cell number change: -3.55%
- AC50 [1]: 7.31 µM [falling, partial curve]

SMILES: Cn1nnnc1Sc1ncnc2scc(-c3cc4ccccc4o3)c12
- cell number change: -43.6%
- AC50 [2]: 14.6 µM [falling, partial curve]

SMILES: c1ccc(Cn2c(SCc3nc4ccccc4s3)nnc2-c2ccco2)cc1
- cell number change: -27.6%
- AC50 [1]: 8.2 µM [rising, partial curve]

SMILES: CC1CN(C(=O)c2cc(S(=O)(=O)N3CCCC3)ccc2Cl)CC(C)O1 (configuration not stated)
- cell number change: 13%
- AC50 [1]: 2.91 µM [rising, partial curve]

SMILES: CCS(=O)(=O)n1nc(NCc2cccc(OC)c2)nc1NCc1cccc(OC)c1
- cell number change: -0.992%
- AC50 [1]: 20.6 µM [rising, single point]

SMILES: COc1cc(CNCc2ccccn2)ccc1OCc1ccc(Cl)cc1Cl
- cell number change: -12%
- AC50 [1]: 0.82 µM [falling, full curve, poor fit]

SMILES: Cc1ccc(C(=O)c2no[n+]([O-])c2C(=O)c2ccc(C)cc2)cc1
- cell number change: -1.27%
- AC50 [1]: 18.4 µM [falling, single point]

SMILES: COc1ccc(C(=O)NCC(=O)N2CCN(c3ccc(F)cc3)CC2)cc1
- cell number change: 9.52%

SMILES: Cc1ccc(CCNC(=O)CNS(=O)(=O)c2ccc3nc(C)sc3c2)cc1
- AC50 [1]: 6.51 µM [rising, single point]

SMILES: Oc1ccc(Br)cc1CNc1cccc2cccnc12
- cell number change: -39.1%
- AC50 [2]: 29.1 µM [falling, single point]
- AC50 [1]: 29.1 µM [falling, single point]

SMILES: CCOc1ccccc1NC(=O)c1nnn(-c2ccc3c(c2)OCCO3)c1N
- cell number change: 13.2%

SMILES: CC(NC(=O)CN(c1cccc(C(F)(F)F)c1)S(C)(=O)=O)c1ccccc1 (configuration not stated)
- cell number change: -17%
- AC50 [1]: 0.82 µM [falling, full curve, poor fit]

SMILES: Cc1cc(=O)n2[nH]c(N)c(N=Nc3ccccc3F)c2n1
- cell number change: 5.27%
- AC50 [1]: 0.651 µM [rising, full curve, poor fit]
